Results taken from paper PMC8651739.
These are yes or no findings as the source states them, for the method shown. In cells and extracts the contact can be indirect. Some binding calls cover weakened binding; strength is not graded here. Sequences can lack the tags named with a protein.

Chains of the proteins cited; added tags and fusions are not shown.
UniProt Q14145: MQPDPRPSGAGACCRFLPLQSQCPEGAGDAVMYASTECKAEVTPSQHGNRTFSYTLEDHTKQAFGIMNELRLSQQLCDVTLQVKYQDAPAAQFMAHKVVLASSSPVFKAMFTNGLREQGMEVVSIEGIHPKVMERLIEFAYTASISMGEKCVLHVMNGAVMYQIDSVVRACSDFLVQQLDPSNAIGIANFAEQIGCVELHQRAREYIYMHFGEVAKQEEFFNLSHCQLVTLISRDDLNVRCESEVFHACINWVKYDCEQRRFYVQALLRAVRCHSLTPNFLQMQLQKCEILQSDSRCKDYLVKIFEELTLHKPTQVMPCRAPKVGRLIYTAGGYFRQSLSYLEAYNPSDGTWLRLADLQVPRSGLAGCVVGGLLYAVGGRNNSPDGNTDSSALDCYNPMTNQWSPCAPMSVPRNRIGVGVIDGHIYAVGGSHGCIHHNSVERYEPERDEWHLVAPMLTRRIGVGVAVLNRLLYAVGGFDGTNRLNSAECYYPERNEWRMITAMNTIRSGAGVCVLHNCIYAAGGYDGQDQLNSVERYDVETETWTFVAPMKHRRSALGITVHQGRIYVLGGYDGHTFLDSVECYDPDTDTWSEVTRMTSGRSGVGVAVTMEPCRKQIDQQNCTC

Target: kelch-like ECH-associated protein 1 (human (endogenous in A2780 and A2780/DDP)) (UniProt Q14145)
Assay: co-IP; endogenous proteins; A2780 or A2780/DDP cells lysed in Pierce IP buffer with protease and phosphatase inhibitors; lysates probed overnight at 4 °C with rabbit anti-KEAP1 (IgG as control), protein G beads, Western blot

binding: binds
B1: O-linked N-acetylglucosamine (GlcNAc) transferase (enzyme, UniProt O15294 1-1046)
chain: MASSVGNVADSTEPTKRMLSFQGLAELAHREYQAGDFEAAERHCMQLWRQEPDNTGVLLLLSSIHFQCRRLDRSAHFSTLAIKQNPLLAEAYSNLGNVYKERGQLQEAIEHYRHALRLKPDFIDGYINLAAALVAAGDMEGAVQAYVSALQYNPDLYCVRSDLGNLLKALGRLEEAKACYLKAIETQPNFAVAWSNLGCVFNAQGEIWLAIHHFEKAVTLDPNFLDAYINLGNVLKEARIFDRAVAAYLRALSLSPNHAVVHGNLACVYYEQGLIDLAIDTYRRAIELQPHFPDAYCNLANALKEKGSVAEAEDCYNTALRLCPTHADSLNNLANIKREQGNIEEAVRLYRKALEVFPEFAAAHSNLASVLQQQGKLQEALMHYKEAIRISPTFADAYSNMGNTLKEMQDVQGALQCYTRAIQINPAFADAHSNLASIHKDSGNIPEAIASYRTALKLKPDFPDAYCNLAHCLQIVCDWTDYDERMKKLVSIVADQLEKNRLPSVHPHHSMLYPLSHGFRKAIAERHGNLCLDKINVLHKPPYEHPKDLKLSDGRLRVGYVSSDFGNHPTSHLMQSIPGMHNPDKFEVFCYALSPDDGTNFRVKVMAEANHFIDLSQIPCNGKAADRIHQDGIHILVNMNGYTKGARNELFALRPAPIQAMWLGYPGTSGALFMDYIITDQETSPAEVAEQYSEKLAYMPHTFFIGDHANMFPHLKKKAVIDFKSNGHIYDNRIVLNGIDLKAFLDSLPDVKIVKMKCPDGGDNADSSNTALNMPVIPMNTIAEAVIEMINRGQIQITINGFSISNGLATTQINNKAATGEEVPRTIIVTTRSQYGLPEDAIVYCNFNQLYKIDPSTLQMWANILKRVPNSVLWLLRFPAVGEPNIQQYAQNMGLPQNRIIFSPVAPKEEHVRRGQLADVCLDTPLCNGHTTGMDVLWAGTPMVTMPGETLASRVAASQLTCLGCLELIAKNRQEYEDIAVKLGTDLEYLKKVRGKVWKQRISSPLFNTKQYTMELERLYLQMWEHYAAGNKPDHMIKPVEVTESA
